# Measurements as given in patent US11377425B1, “Small molecule modulators of IL-17” (LEO Pharma A/S, priority 2018, dated 2022).
# The name of at least one read-out is uncertain.
# Columns and labels:
# [1] = In vivo dosing of compounds in dog (pharmacokinetics, PO and i.v.); design: species or system dog (male Beagles); details: parent Example 32 quantified in blood
# Method: Example 139. In Vivo Dosing of Compounds in Dog
# Dog pharmacokinetics (PK) of Examples 32 and 135 were studied in male Beagles. On the day of dosing, the animals were fasted overnight. They had free access to drinking water, except in immediate connection with dosing, and were allowed to eat from 4 hrs after dosing and onwards. The dogs were weighed on the morning prior to dosing and the individual dose volumes were adjusted on a per kg body weight basis.
# Oral dosing. The dogs were dosed PO by oral gavage. The test compounds were dosed as suspensions in 1% methyl cellulose solution (2.5 mL/kg). The stomach tube was then flushed with at least 15 mL water post-dose to ensure that all test formulation entered the stomach.
# Intravenous dosing. The dogs were dosed i.v. via an in-dwelling catheter in venae cephalica. The dose volume was 1 mL/kg of a solution of Example 32 (0.3 mg/mL) in HPB (hydroxypropyl beta cyclodextrin)/PEG-4 (polyethylene glycol-4)/water (20:20:60). […]
# Study samples. […] The compounds were quantified in blood by means of LC-MS/MS.
# Standard PK parameters were calculated using non-compartmental analysis and Phoenix WinNonLin 6.4 (Certara, Princeton, N.J.).
# (§1) The bioavailabilty (F) was calculated using the equation below, where AUC is the area under the curve for the oral and i.v. dosing routes and D is the dose given i.v. or orally. […]
# [2] = In vivo dosing of compounds in mouse (pharmacokinetics, PO and i.v.); design: species or system mouse (female Balb/C); details: parent Example 32 quantified in blood
# Method: Example 140. In Vivo Dosing of Compounds in Mouse
# Mouse pharmacokinetics of Examples 32 and 135 were studied in female Balb/C mice. Animals were not fasted prior to the study and had access to water and certified rodent diet ad libitum during the study. The mice were weighed on the day of the study and the individual dose volumes were adjusted on a per kg body weight basis.
# Oral dosing. The mice were dosed by oral gavage. Example 135 was dosed as a suspension in 1% methyl cellulose solution (10 mL/kg). Example 32 was dosed as a suspension in a formulation containing Betadex sulfobutyl ether sodium/PVP (polyvinyl pyrrolidone)/0.1% Citrate buffer pH 3 (20:5:75) (10 mL/kg).
# Intravenous dosing. The mice were dosed i.v. via the tail vein. The dose volume was 2 mL/kg of a solution of Example 32 (0.2 mg/mL) in DMSO/ethanol/water/propylene glycol (PG) (2:8:50:40).
# Study samples. Blood was collected (exactly 20 μL per time point) from the saphenous vein of each animal into K2EDTA-coated capillaries. […] The compounds were quantified in blood by means of LC-MS/MS.
# Standard PK parameters were calculated using non-compartmental analysis in Phoenix WinNonLin 6.4 (Certara, Princeton, N.J.)
# as §1
smiles,measurement,setting,value
"Cc1nn(COP(=O)(O)O)c(C)c1-c1ccc(NC(=O)[C@@H](NC(=O)c2ccnn2C(C)C)C(C2CC2)C2CC2)cc1 [Example 135, [4-[4-[[(2S)-3,3-Dicyclopropyl-2-[(2-isopropylpyrazole-3-carbonyl)amino]propanoyl]amino]phenyl]-3,5-dimethyl-pyrazol-1-yl]methyl dihydrogen phosphate]","bioavailability of Example 32 when dosing the prodrug, compared to dosing Example 32 itself",[1],significantly higher
same,"bioavailability of Example 32 when dosing the prodrug, compared to dosing Example 32 itself",[2],significantly higher
